The results are deposited in PubChem (AID1053133; Broad Institute, 2014).

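Vaccinia-infected cells with a two-color viral stage reporter; Venus fluorescence read on a plate reader; the cell line is not named here; timing not stated here.
The test concentration is not given here.
Percent change in Venus reporter signal; lower (more negative) values mean stronger inhibition of that viral stage.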

Values are in %.
The controls that fix the scale are not given here.
Common to all entries: measured here: Venus reporter, other viral stage.
Part of the compounds only, not a random draw; the main read-out is not listed here.

Compound	activity change (Venus) (%)
C[C@@H]1CN([C@H](C)CO)C(=O)c2cc(NC(=O)Cc3cn(C)c4ccccc34)ccc2O[C@H]1CN(C)Cc1ccc(Cl)c(Cl)c1	-27.53
COc1ccc2c3c([nH]c2c1)[C@H](CO)N(C(=O)Nc1cccc(F)c1)CC31CCN(S(=O)(=O)c2ccccc2)CC1	-48.86
C[C@@H]1CN([C@H](C)CO)C(=O)c2cc(-c3ccc(F)cc3)cnc2O[C@H]1CN(C)CC1CCCCC1	-38.79
Cc1ccc(-c2ccc3c(c2)O[C@@H](CN(C)Cc2ccc(F)cc2)[C@H](C)CN([C@@H](C)CO)S3(=O)=O)cc1	-51.08
Cc1ccc(S(=O)(=O)Nc2cccc3c2O[C@@H](CN(C)Cc2ccc(-c4ccccc4)cc2)[C@@H](C)CN([C@H](C)CO)C3=O)cc1	-21.05
CC(=O)N1Cc2cc(C(=O)NCC(F)(F)F)nc(-c3cccc(-c4cccnc4)c3)c2[C@@H]1CCO	-36.13
COc1ccccc1C(=O)Nc1ccc2c(c1)C(=O)N(C)[C@@H]1CC[C@@H](CC(=O)NCc3ccc(Cl)c(Cl)c3)O[C@@H]1CO2	-39.59
CC(=O)N1CCCCN2[C@H](CO)[C@H](c3ccc(C#Cc4ccccc4F)cc3)[C@H]2C1	-62.43
C[C@H](CO)N1C[C@H](C)[C@@H](CN(C)C(=O)c2ccccn2)Oc2cc(C#Cc3ccc(F)cc3)ccc2S1(=O)=O	-35.88
C[C@H]1CN([C@@H](C)CO)C(=O)c2cccc(NC(=O)Nc3ccc(C(F)(F)F)cc3)c2O[C@H]1CN(C)CC1CCCCC1	-35.95
C[C@H]1CN([C@@H](C)CO)C(=O)Cc2cc(NC(=O)Nc3ccc(C(F)(F)F)cc3)ccc2O[C@H]1CN(C)S(=O)(=O)c1ccccc1	-69.54
C[C@H]1CN([C@@H](C)CO)C(=O)c2cccc(NC(=O)Nc3ccc(C(F)(F)F)cc3)c2O[C@@H]1CN(C)C(=O)Nc1cccc2ccccc12	-31.86
C/C=C/c1ccc([C@H]2[C@H]3CN(C(=O)Nc4ccc(F)cc4)CCCCN3[C@H]2CO)cc1	-31.21
N#C[C@H]1[C@@H](c2ccc(C#CC3CCCCC3)cc2)[C@H](CO)N1S(=O)(=O)c1ccccc1	-58.77
Cc1cc(C(=O)Nc2cccc3c2O[C@H](CN(C)Cc2ccc(-c4ccccc4)cc2)[C@@H](C)CN([C@H](C)CO)C3=O)n(C)n1	-32.46
C[C@H](CO)N1C[C@H](C)[C@H](CN(C)Cc2ccc(C(F)(F)F)cc2)OCCCC[C@H](C)Oc2ccc(NC(=O)c3ccccc3)cc2C1=O	-43.86
Cc1cccc(-c2ccc([C@H]3[C@@H](CO)N4CCCCN(C(=O)c5ccc6c(c5)OCO6)C[C@H]34)cc2)c1	-62.03
C[C@@H]1CN([C@@H](C)CO)C(=O)c2cc(NC(=O)Cc3cn(C)c4ccccc34)ccc2O[C@@H]1CN(C)Cc1ccc(Oc2ccccc2)cc1	-26.38
Cc1noc(C)c1NC(=O)Nc1ccc2c(c1)C(=O)N([C@@H](C)CO)C[C@@H](C)[C@H](CN(C)Cc1ccc(C(F)(F)F)cc1)OCCCC[C@@H](C)O2	-36.98
COc1ccc(S(=O)(=O)Nc2ccc3c(c2)C(=O)N([C@H](C)CO)C[C@H](C)[C@@H](CN(C)S(=O)(=O)c2ccc(C)cc2)OCCCC[C@H](C)O3)cc1	-31.69
O=C(Nc1cc(F)ccc1F)N1CC(=O)N2[C@H](C1)[C@@H](c1ccc(C#CC3CCCCC3)cc1)[C@@H]2CO	-72.18
C[C@H]1CN([C@@H](C)CO)C(=O)c2cccc(NC(=O)Nc3ccc(C(F)(F)F)cc3)c2O[C@H]1CN(C)S(=O)(=O)c1ccc(F)cc1	-32.61
O=C(C[C@H]1CC[C@@H]2[C@H](COC[C@@H](O)CN2C(=O)Nc2cccc(Cl)c2)O1)NCC1CCCCC1	-36.27
O=C(Nc1ccccc1)N1CC(=O)N2[C@H](C1)[C@H](c1ccc(C#CC3CCCCC3)cc1)[C@@H]2CO	-52.62
O=C(Nc1cccc(F)c1)N1CC(=O)N2[C@@H](CO)[C@H](c3ccc(-c4ccc(F)cc4)cc3)[C@@H]2C1	-30.04
Cc1ccc(S(=O)(=O)N[C@@H]2C=C[C@@H](CC(=O)NCc3ccc(Cl)c(Cl)c3)O[C@H]2CO)cc1	-34.73
Cc1noc(C)c1NC(=O)N(C)C[C@H]1Oc2cc(C#CCC(C)C)ccc2S(=O)(=O)N([C@H](C)CO)C[C@H]1C	-42.84
O=C(c1ccccn1)N1C[C@@H]2N[C@H](C1)C2c1ccc(-c2ccccc2F)cc1 (stereo not given in full)	-88.38
CC(C)CC#Cc1ccc2c(c1)O[C@@H](CN(C)C(=O)Cc1ccncc1)[C@H](C)CN([C@@H](C)CO)S2(=O)=O	-33.71
CC(C)CC#Cc1ccc2c(c1)O[C@@H](CN(C)C(=O)c1ccccc1F)[C@@H](C)CN([C@@H](C)CO)S2(=O)=O	-38.43
N#C[C@H]1[C@H](c2ccc(C#Cc3ccc(F)cc3)cc2)[C@@H](CO)N1C(=O)C1CCCC1	-19.65
C[C@@H]1CN([C@@H](C)CO)C(=O)c2cccc(NC(=O)c3cnccn3)c2O[C@@H]1CN(C)Cc1ccccc1	-26.04
COc1ccc(S(=O)(=O)Nc2ccc3c(c2)CC(=O)N([C@@H](C)CO)C[C@@H](C)[C@H](CN(C)Cc2ccc(Oc4ccccc4)cc2)O3)cc1	-66.26
C[C@@H]1CN([C@H](C)CO)S(=O)(=O)c2ccc(-c3ccccc3)cc2O[C@H]1CN(C)Cc1ccccn1	-47.3
C[C@@H]1CN([C@@H](C)CO)S(=O)(=O)c2ccc(C3=CCCCC3)cc2O[C@@H]1CN(C)C(=O)c1ccc(F)cc1	-58.4
Cc1ccc(-c2ccc3c(c2)O[C@H](CN(C)Cc2ccc(F)cc2)[C@H](C)CN([C@H](C)CO)S3(=O)=O)cc1	-47.26
COc1ccc(CN(C)C[C@@H]2OCCCC[C@@H](C)Oc3ccc(NC(=O)C4CCCCC4)cc3C(=O)N([C@@H](C)CO)C[C@H]2C)cc1	-42.78

The first 3 entries again:

| Compound | activity change (Venus) (%) |
|---|---|
| `C[C@@H]1CN([C@H](C)CO)C(=O)c2cc(NC(=O)Cc3cn(C)c4ccccc34)ccc2O[C@H]1CN(C)Cc1ccc(Cl)c(Cl)c1` | -27.53 |
| `COc1ccc2c3c([nH]c2c1)[C@H](CO)N(C(=O)Nc1cccc(F)c1)CC31CCN(S(=O)(=O)c2ccccc2)CC1` | -48.86 |
| `C[C@@H]1CN([C@H](C)CO)C(=O)c2cc(-c3ccc(F)cc3)cnc2O[C@H]1CN(C)CC1CCCCC1` | -38.79 |